Assay results taken from patent US20100183640A1.
No constants are given. Whether binding was seen depends on the method and setting. Some entries that bind do so weakly or less than the wild type.

By UniProt entry, the sequences of proteins in these tests, tags left out. Where a name states a change or a piece, a line headed by the entry shows the natural chain unless it says otherwise. Chains listed by the source or under a name are the forms on record and can include a tag or linker. Residues count along the entry.
Superfibronectin (recombinant C-terminal 70 amino acid part of the fibronectin type III.1 domain) (P02751, residues 627-702): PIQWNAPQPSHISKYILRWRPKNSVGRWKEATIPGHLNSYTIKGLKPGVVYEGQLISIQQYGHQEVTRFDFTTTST
40 kDa chymotryptic fragment of human fibronectin (P02751, residues 1815-2202): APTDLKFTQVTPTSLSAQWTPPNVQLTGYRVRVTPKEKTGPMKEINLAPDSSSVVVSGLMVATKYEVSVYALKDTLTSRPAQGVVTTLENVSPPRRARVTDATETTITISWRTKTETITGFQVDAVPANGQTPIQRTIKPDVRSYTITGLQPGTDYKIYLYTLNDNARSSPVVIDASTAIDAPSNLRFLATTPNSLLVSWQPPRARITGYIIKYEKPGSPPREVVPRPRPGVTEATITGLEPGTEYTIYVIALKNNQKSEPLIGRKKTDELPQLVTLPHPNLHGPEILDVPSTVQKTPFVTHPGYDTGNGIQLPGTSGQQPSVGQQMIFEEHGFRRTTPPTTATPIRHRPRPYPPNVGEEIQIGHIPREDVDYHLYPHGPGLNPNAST
120 kDa chymotryptic fragment of human fibronectin (P02751, form named): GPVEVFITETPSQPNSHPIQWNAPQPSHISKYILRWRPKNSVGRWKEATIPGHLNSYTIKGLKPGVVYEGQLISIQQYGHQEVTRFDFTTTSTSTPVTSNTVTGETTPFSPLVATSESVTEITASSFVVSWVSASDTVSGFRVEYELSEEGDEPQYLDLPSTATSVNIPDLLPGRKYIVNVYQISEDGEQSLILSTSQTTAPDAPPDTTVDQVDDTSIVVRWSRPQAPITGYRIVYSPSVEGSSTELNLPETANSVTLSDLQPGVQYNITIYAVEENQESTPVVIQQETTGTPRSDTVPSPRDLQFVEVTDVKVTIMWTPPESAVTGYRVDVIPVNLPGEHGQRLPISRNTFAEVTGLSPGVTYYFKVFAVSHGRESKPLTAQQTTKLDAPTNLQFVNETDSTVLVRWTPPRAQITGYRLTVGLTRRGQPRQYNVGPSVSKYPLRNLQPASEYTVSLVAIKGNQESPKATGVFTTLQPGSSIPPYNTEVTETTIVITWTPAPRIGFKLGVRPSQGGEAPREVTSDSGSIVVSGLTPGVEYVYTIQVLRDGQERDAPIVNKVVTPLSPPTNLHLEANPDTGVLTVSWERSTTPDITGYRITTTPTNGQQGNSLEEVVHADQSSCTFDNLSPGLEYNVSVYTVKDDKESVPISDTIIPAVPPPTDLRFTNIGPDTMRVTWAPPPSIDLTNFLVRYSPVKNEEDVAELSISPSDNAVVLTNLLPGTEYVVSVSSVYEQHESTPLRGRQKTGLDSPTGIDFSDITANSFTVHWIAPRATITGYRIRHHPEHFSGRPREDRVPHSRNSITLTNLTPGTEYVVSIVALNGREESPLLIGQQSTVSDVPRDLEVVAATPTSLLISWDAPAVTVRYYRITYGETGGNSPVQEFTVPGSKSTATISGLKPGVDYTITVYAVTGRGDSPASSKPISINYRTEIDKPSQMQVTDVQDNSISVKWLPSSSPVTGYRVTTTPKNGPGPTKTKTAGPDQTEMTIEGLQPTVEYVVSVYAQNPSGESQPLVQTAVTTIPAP

Assays:
[1] = molecular target: 120 kDa chymotryptic fragment of human fibronectin (human) (UniProt P02751); assay: ELISA, coated fibronectin fragments
[2] = molecular target: 40 kDa chymotryptic fragment of human fibronectin (human) (UniProt P02751); assay: ELISA, coated fibronectin fragments
[3] = molecular target: Superfibronectin (recombinant C-terminal 70 amino acid part of the fibronectin type III.1 domain) (human) (UniProt P02751); assay: ELISA titration, 1 microgram/well coated, 2.7 mM CaCl2
[4] = molecular target: 40 kDa chymotryptic fragment of human fibronectin (human) (UniProt P02751); assay: as above
[5] = molecular target: 40 kDa chymotryptic fragment of human fibronectin (human) (UniProt P02751); assay: ELISA, fragment coated, rhUG titrated, anti-UG detection
[6] = molecular target: T1, CD148 (human) (UniProt Q12913); assay: rhUG-Sepharose affinity column, Hfl-1 lysate, elution with 0.5 M NaCl, Western blot
T1 sequence (looked up): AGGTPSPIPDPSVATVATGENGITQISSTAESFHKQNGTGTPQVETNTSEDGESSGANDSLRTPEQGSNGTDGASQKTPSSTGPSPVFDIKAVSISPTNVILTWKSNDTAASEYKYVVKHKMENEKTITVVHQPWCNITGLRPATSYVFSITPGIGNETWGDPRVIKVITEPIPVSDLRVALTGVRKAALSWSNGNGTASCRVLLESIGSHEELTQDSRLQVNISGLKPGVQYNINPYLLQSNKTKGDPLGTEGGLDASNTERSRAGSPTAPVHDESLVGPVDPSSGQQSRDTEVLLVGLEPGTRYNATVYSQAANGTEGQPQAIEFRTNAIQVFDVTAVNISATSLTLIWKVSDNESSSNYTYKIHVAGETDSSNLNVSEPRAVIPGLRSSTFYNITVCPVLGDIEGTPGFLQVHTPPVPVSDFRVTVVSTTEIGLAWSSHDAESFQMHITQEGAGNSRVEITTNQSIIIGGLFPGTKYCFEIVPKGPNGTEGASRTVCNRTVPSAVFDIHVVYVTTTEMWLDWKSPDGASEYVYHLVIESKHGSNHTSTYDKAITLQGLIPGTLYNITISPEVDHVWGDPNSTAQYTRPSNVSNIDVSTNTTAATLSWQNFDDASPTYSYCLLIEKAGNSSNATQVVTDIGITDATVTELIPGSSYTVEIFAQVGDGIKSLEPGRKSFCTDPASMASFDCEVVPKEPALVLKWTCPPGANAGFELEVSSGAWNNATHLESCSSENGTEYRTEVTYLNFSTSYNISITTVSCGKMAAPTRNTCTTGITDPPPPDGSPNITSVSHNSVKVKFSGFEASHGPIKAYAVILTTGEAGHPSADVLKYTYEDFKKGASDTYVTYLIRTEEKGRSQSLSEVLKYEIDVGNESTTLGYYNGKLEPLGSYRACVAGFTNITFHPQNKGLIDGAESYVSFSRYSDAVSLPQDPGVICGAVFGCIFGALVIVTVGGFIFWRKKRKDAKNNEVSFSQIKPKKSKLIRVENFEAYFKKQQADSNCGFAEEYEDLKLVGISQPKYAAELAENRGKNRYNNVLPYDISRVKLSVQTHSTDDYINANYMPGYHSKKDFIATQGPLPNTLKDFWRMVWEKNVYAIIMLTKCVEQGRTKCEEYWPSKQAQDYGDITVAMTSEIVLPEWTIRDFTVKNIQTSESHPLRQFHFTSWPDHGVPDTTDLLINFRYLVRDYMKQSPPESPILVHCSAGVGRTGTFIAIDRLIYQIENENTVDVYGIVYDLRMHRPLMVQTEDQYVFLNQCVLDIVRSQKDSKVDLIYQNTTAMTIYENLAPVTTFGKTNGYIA

[7] = molecular target: 120 kDa chymotryptic fragment of human fibronectin (human) (UniProt P02751); assay: ELISA, coated fibronectin species
[8] = molecular target: 40 kDa chymotryptic fragment of human fibronectin (human) (UniProt P02751); assay: ELISA, coated fibronectin species
[9] = molecular target: Superfibronectin (recombinant C-terminal 70 amino acid part of the fibronectin type III.1 domain) (human) (UniProt P02751); assay: ELISA, 5 micrograms/well superfibronectin coated, 250 ng rhUG/well, anti-UG detection
[10] = molecular target: 120 kDa chymotryptic fragment of human fibronectin (human) (UniProt P02751); assay: ELISA, 5 micrograms/well fragment coated, 250 ng rhUG/well, anti-UG detection
[11] = molecular target: 40 kDa chymotryptic fragment of human fibronectin (human) (UniProt P02751); assay: as above

Measured: binding

B1: recombinant human uteroglobin (ligand)
chain: EICPSFQRVIETLLMDTPSSYEAAMELFSPDQDMREAGAQLKKLVDTLPQKPRESIIKLMEKIAQSSLCN
binds: all assays above
